Measurements reported in PMC6197226.
Results are given in words; binding and its absence hold for the method and conditions named. Binding seen in cells or lysates may run through a third protein. Some binding calls cover weakened binding; strength is not graded here.

Experiments:
Test in all cases: pull-down; C-terminally biotinylated peptides on streptavidin agarose; 70 ug HEK293 protein extract; binding buffer 0.05% Tween-20, 10% glycerol, 0.2 M KCl, 20 mM HEPES pH 7.9; 4 °C, 2 h; immunoblotting; only the target purified
[1] = target: G-nsP4 peptide (X-…-biotin, X = Gly) (Sindbis virus)
[2] = target: T1, native BiP peptide (X-…-biotin, X = Glu)
T1 sequence (peptide, C-terminal biotin): EEEDKKEDVG

[3] = target: T2, arginylated BiP peptide (X-…-biotin, X = Arg-Glu)
T2 sequence (peptide, C-terminal biotin): REEEDKKEDVG

[4] = target: R-nsP4 peptide (X-…-biotin, X = Arg) (Sindbis virus)

Question: What does the source list for “wild-type p62-Flag (full-length p62 expressed in HEK293 cells) (from UniProt Q13501 1-440)”?
Answer: binding [1]: no binding; binding [2]: no binding; binding [3]: binds; binding [4]: binds
